# Source: the supplement of paper PMC8007513
# This is one part of the list. Repeats are few or missing, and single values can be far off.
# Tested on: Saccharomyces cerevisiae BY4743
# Assay: growth (OD600) with compound + IPBC relative to untreated control; higher = less growth inhibition
# Settings: compound concentration: 133 uM; IPBC concentration: 0.5 ug/ml; 20 h
# Method: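 NMCCC compounds (133 uM) combined with IPBC (0.5 ug/ml) against Saccharomyces cerevisiae BY4743 in YPD, 96-well plates. Growth was read as OD600 at 20 h and expressed as % of the untreated control. Single pass.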
row,Compound,growth
1,CCOc1ccc(CC(=O)Nc2ccc3nc(NC(C)=O)sc3c2)cc1OCC + CCCCNC(=O)OCC#CI [3-iodo-2-propynyl butylcarbamate (IPBC)],85%
2,Cc1ccc(C(=O)Nc2ccc(-c3nccs3)cc2)s1 + CCCCNC(=O)OCC#CI [3-iodo-2-propynyl butylcarbamate (IPBC)],91.3%
3,COC(=O)CN(c1cc(C)cc(C)c1)S(=O)(=O)c1cc2c(cc1C)N(C(C)=O)CCO2 + CCCCNC(=O)OCC#CI [3-iodo-2-propynyl butylcarbamate (IPBC)],104%
4,CCOC(=O)N1CCC(NC(=O)c2cc3cc(Cl)ccc3[nH]2)CC1 + CCCCNC(=O)OCC#CI [3-iodo-2-propynyl butylcarbamate (IPBC)],78.9%
5,COc1ccccc1NC(=O)Nc1ccc2c(c1)C(=O)OC2 + CCCCNC(=O)OCC#CI [3-iodo-2-propynyl butylcarbamate (IPBC)],80.5%
6,COC1=CC=C(CCNC(=O)\C2=C\C3=C(CS2)C(=C(C)S3)C)C=C1OC + CCCCNC(=O)OCC#CI [3-iodo-2-propynyl butylcarbamate (IPBC)],92.2%
7,CC(OCc1ccccc1)C(=O)Nc1cccc2c[nH]nc12 (configuration not stated) + CCCCNC(=O)OCC#CI [3-iodo-2-propynyl butylcarbamate (IPBC)],85.3%
8,CCN(CC)CCNC(=O)c1cnn(-c2cccc(C)c2)c1-n1cccc1 + CCCCNC(=O)OCC#CI [3-iodo-2-propynyl butylcarbamate (IPBC)],103%
9,COC1=CC=C2N(C)\C=C(/C(=O)C2=C1)[S](=O)(=O)C3=CC=C(C)C=C3 + CCCCNC(=O)OCC#CI [3-iodo-2-propynyl butylcarbamate (IPBC)],77.8%
10,CCOC(=O)c1cc2c(OC)ccc(OC)c2n1CC(=O)c1ccccc1 + CCCCNC(=O)OCC#CI [3-iodo-2-propynyl butylcarbamate (IPBC)],70%
11,Cc1cc(COC(=O)c2ccccc2NC(=O)c2ccsc2)no1 + CCCCNC(=O)OCC#CI [3-iodo-2-propynyl butylcarbamate (IPBC)],98.5%
12,COC1=CC=C(CCC2CCN(CC2)CN3\C=C(Br)/C=C\C3=O)C=C1 + CCCCNC(=O)OCC#CI [3-iodo-2-propynyl butylcarbamate (IPBC)],84.3%
13,CCCCn1c(SCc2ccccn2)nc2cc(S(=O)(=O)N(C)C)ccc21 + CCCCNC(=O)OCC#CI [3-iodo-2-propynyl butylcarbamate (IPBC)],96.5%
14,Cn1cccc1Cc1nnc(SCC(N)=O)n1-c1ccc(Cl)cc1 + CCCCNC(=O)OCC#CI [3-iodo-2-propynyl butylcarbamate (IPBC)],97.8%
15,O=C(Cc1cn2ccccc2n1)Nc1cccc(F)c1 + CCCCNC(=O)OCC#CI [3-iodo-2-propynyl butylcarbamate (IPBC)],107%
16,Cc1nc(C)c(C#N)c(SCc2nc(O)c3cccc(C)c3n2)n1 + CCCCNC(=O)OCC#CI [3-iodo-2-propynyl butylcarbamate (IPBC)],96.4%
17,CCCNC(=O)c1cc(N(C)S(=O)(=O)c2ccc(C)cc2)ccn1 + CCCCNC(=O)OCC#CI [3-iodo-2-propynyl butylcarbamate (IPBC)],108%
18,O=c1ccc(-c2ccccc2F)nn1C/C=C/c1ccccc1 + CCCCNC(=O)OCC#CI [3-iodo-2-propynyl butylcarbamate (IPBC)],87.1%
19,Cc1ccc(-c2ncccc2C(=O)Nc2cccc(F)c2)s1 + CCCCNC(=O)OCC#CI [3-iodo-2-propynyl butylcarbamate (IPBC)],98.3%
20,CCC(C)C1=CC=C(NC(=O)\C2=C\C3=CC=CC=C3C(=O)O2)C=C1 (configuration not stated) + CCCCNC(=O)OCC#CI [3-iodo-2-propynyl butylcarbamate (IPBC)],93.9%
21,CCCn1c(O)nnc1SCc1cc(C(=O)OC)c(C)o1 + CCCCNC(=O)OCC#CI [3-iodo-2-propynyl butylcarbamate (IPBC)],106%
22,CC(C)N(Cc1ccccc1)Cc1nc(O)c2sccc2n1 + CCCCNC(=O)OCC#CI [3-iodo-2-propynyl butylcarbamate (IPBC)],113%

# Reformatted with bars between the fields: entries from further up
row | Compound | growth
11 | Cc1cc(COC(=O)c2ccccc2NC(=O)c2ccsc2)no1 + CCCCNC(=O)OCC#CI [3-iodo-2-propynyl butylcarbamate (IPBC)] | 98.5%
15 | O=C(Cc1cn2ccccc2n1)Nc1cccc(F)c1 + CCCCNC(=O)OCC#CI [3-iodo-2-propynyl butylcarbamate (IPBC)] | 107%
